PubChem BioAssay AID652272 | Drosophila RNAi Screening Center – 2013

Assay: 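Finding fly genes that regulate Hedgehog signal transduction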 (primary screen)
System: Drosophila clone 8 (Cl8) cells
Reagents: long dsRNA against Drosophila genes
Measured: 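Firefly light from a Hedgehog-responsive ptc promoter reporter and Renilla reference light, both read on a plate reader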
Reading the numbers: firefly Hh reporter signal: higher = more ptc reporter light; Renilla reference signal: higher = more Renilla control light
Active means: 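Called a hit if the two-replicate mean z-score lies below -2 or above +3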
Calls: active = hit: reporter lowered or raised; inactive = not a hit
The screen tested about 21,000 reagents; shown is a random part of those that have a named target and a result. Over the whole deposit, 503 (2.4%) are marked active. 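Raw plate light values, not normalised; calls rest on replicate z-scores that were not deposited; hits include reporter decreases as well as increases.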 Names joined by + are all predicted targets of the reagent. The record does not give: the amount of reagent, the time to read-out.

no.	target gene	PubChem SID	firefly Hh reporter signal, replicate 1	firefly Hh reporter signal, replicate 2	firefly Hh reporter signal, replicate 3	Renilla reference signal, replicate 1	Renilla reference signal, replicate 2	outcome
1	RpS11	SID104187081	2.97e5	72912	29616	27152	4196	active
2	Dhc1	SID104192540	3.13e5			5721		inactive
3	Dhc1	SID104196295	59621	1.09e5		2000	2944	inactive
4	Gr59e	SID104184068	78995	54246		1956	4949	inactive
5	CG13544	SID104183978	98266	44816		2592	4122	inactive
6	Sec15	SID104195971	6.58e5	1.44e5		43008	677	inactive
7	dock	SID104180604	74997	73594		2672	2788	inactive
8	CG15564	SID104194894	1.07e5	90304		4507	840	inactive
9	Nup93-1	SID104199136	57738	45091		1456	1203	inactive
10	Cpr100A	SID104194257	94797	1.35e5		2951	6976	inactive
11	CG4660	SID104198170	63584	2.02e5		1320	7476	inactive
12	CG13375	SID104198413	92829	2.20e5		2634	7651	inactive
13	Cmtr1	SID104198192	90108	1.73e5		3136	6752	inactive
14	clos	SID104186032	1.07e5	65897		2918	5154	inactive
15	clos	SID104186033	1.49e5	84156		3803	6330	inactive
16	clos	SID104186570	1.02e5	38024		2692	2656	inactive
17	CG32281	SID104188028	78928	65122		3878	2839	inactive
18	CG43244	SID104185128	1.45e5	2.34e5		3735	11082	inactive
19	Tdg	SID104196911	6.11e5	2.69e5		33020	6100	inactive
20	Tdg	SID104196961	82779	2.43e5		2891	8561	inactive
21	CG32988	SID104182484	84117	45725		1745	3684	inactive
22	Odj	SID104196026	1.61e5	86315		6417	3613	inactive
23	ewg	SID104198565	1.14e5	3.29e5		3908	12265	inactive
24	CG13392	SID104182054	94304	73757		2676	5538	inactive
25	Prx1	SID104190533	81491			2897	2141	inactive
26	CG5096	SID104182605	68757	88672		1894	6240	inactive
27	CG4238	SID104179882	7.59e5	2.65e5		38108	11989	inactive
28	CG4238	SID104180436	1.17e5	1.35e5		2506	3399	inactive
29	CG3961	SID104190182	90263	59917		3409	2361	inactive
30	CG3961	SID104190183	1.66e5			106	4038	inactive
31	CG1213	SID104191983	85505	1.27e5		3385	3530	inactive
32	Kdsr	SID104194037	5.29e5	88071		3552	3552	inactive
33	CG1827	SID104186511	44096	49869		2185	2018	inactive
34	CG18635	SID104186572	6.18e5	99760		4512	4512	inactive
35	blp	SID104195549	67634	89110		1520	2544	inactive
36	Nph	SID104196134	1.40e5	1.47e5		5001	3975	inactive
37	deltaCOP	SID104198552	46501	26931		2086	1639	active
38	Idgf1	SID104183141	90989	65895		3836	2970	inactive
39	ND-19	SID104184196	1.29e5	71469		3065	6301	inactive
40	CG12914	SID104186021	85947	55765		1929	5127	inactive
41	CG31636	SID104182068	72049	50983		1827	4588	inactive
42	CG10949	SID104181904	61192	44848		2778	1577	inactive
43	Lam	SID104183151	55549	10416		885	950	inactive
44	Syt4	SID104192398	71088	1.22e5		3059	3490	inactive
45	att-ORFB + DPCoAC	SID104195348	6.37e5	62012		37644	1924	inactive
46	CG13623	SID104194417	5.95e5	83428		32009	2012	inactive
47	ZnT77C	SID104191558	1.16e5	96368		4240	2698	inactive
48	ZnT77C	SID104191559	1.33e5	1.05e5		4309	3101	inactive
49	Arl2	SID104193909	61408	95472		2327	2800	inactive
50	hdm	SID104197805	69795	1.78e5		1767	6740	inactive
51	CG8379	SID104196206	70904	1.16e5		2915	3954	inactive
52	mah	SID104194437	5.73e5	91408		27141	2772	inactive
53	CG4022	SID104190187	29440	39227	72794	3728	4648	inactive
54	Ance-3	SID104182440	1.94e5	73001		4909	6155	inactive
55	Ance-3	SID104182441	1.09e5	59053		2938	5373	inactive
56	CG31467	SID104195840	77968	89245		2267	2408	inactive
57	CG8149	SID104196183	56200	95988		2049	2912	inactive
